# According to the supplement of paper PMC10077471:
# Whole data set: some 1,900 compounds, median “excess over highest single agent (ExcessHSA) synergy score, 6x6 matrix” near -83, cut for the lowest 2% near -370. This is one part of the list.
# Test system: NCI-H446
# Experiment: excess over highest single agent (ExcessHSA) synergy score, 6x6 matrix; higher = less synergy (more negative = stronger synergy)
# Details: 72 h; CellTiter-Glo viability
row,Structure (SMILES),excess over highest single agent
1,NC(=O)N/N=C/c1ccc([N+](=O)[O-])o1 + Cc1sc2c(c1C)C(c1ccc(Cl)cc1)=N[C@@H](CC(=O)OC(C)(C)C)c1nnc(C)n1-2 [NCGC00250412-19],-55.6
2,CC(C)C[C@H](NC(=O)[C@H](CCc1ccccc1)NC(=O)CN1CCOCC1)C(=O)N[C@@H](Cc1ccccc1)C(=O)N[C@@H](CC(C)C)C(=O)[C@@]1(C)CO1 + Cc1sc2c(c1C)C(c1ccc(Cl)cc1)=N[C@@H](CC(=O)OC(C)(C)C)c1nnc(C)n1-2 [NCGC00250412-19],-521
3,COc1ccc(-n2c(C)c([N+](=O)[O-])c3ccc(O)cc32)cc1 + Cc1sc2c(c1C)C(c1ccc(Cl)cc1)=N[C@@H](CC(=O)OC(C)(C)C)c1nnc(C)n1-2 [NCGC00250412-19],-14.3
4,CN1CCCC(n2nc(Cc3ccc(Cl)cc3)c3ccccc3c2=O)CC1 (centres undefined) + Cc1sc2c(c1C)C(c1ccc(Cl)cc1)=N[C@@H](CC(=O)OC(C)(C)C)c1nnc(C)n1-2 [NCGC00250412-19],-173
5,CCOC(=O)[C@H](CCc1ccccc1)N[C@H]1CCc2ccccc2N(CC(=O)O)C1=O + Cc1sc2c(c1C)C(c1ccc(Cl)cc1)=N[C@@H](CC(=O)OC(C)(C)C)c1nnc(C)n1-2 [NCGC00250412-19],-36.5
6,C[C@@H](N[C@H]1CCCC[C@@H]1NC(=O)c1ccc(Cl)cc1)c1cccc2ccccc12 + Cc1sc2c(c1C)C(c1ccc(Cl)cc1)=N[C@@H](CC(=O)OC(C)(C)C)c1nnc(C)n1-2 [NCGC00250412-19],-135
7,C[C@]12CC[C@H]3[C@@H](CC[C@@]45O[C@@H]4C(O)=C(C#N)C[C@]35C)[C@@H]1CC[C@@H]2O + Cc1sc2c(c1C)C(c1ccc(Cl)cc1)=N[C@@H](CC(=O)OC(C)(C)C)c1nnc(C)n1-2 [NCGC00250412-19],-25.4
8,C=CC(=O)Nc1cc(NC(=O)c2ccc(C)c(NC(=O)c3ccno3)c2)cc(C(F)(F)F)c1 + Cc1sc2c(c1C)C(c1ccc(Cl)cc1)=N[C@@H](CC(=O)OC(C)(C)C)c1nnc(C)n1-2 [NCGC00250412-19],166
9,COC1=C(OC)C(=O)C(CCCCCCCCCCO)=C(C)C1=O + Cc1sc2c(c1C)C(c1ccc(Cl)cc1)=N[C@@H](CC(=O)OC(C)(C)C)c1nnc(C)n1-2 [NCGC00250412-19],-59.5
10,Cc1nc(NC(=O)N2CCC[C@H]2C(N)=O)sc1-c1csc(C(C)(C)C)n1 + Cc1sc2c(c1C)C(c1ccc(Cl)cc1)=N[C@@H](CC(=O)OC(C)(C)C)c1nnc(C)n1-2 [NCGC00250412-19],-89.5
11,CC(C)C[C@H](CC(=O)O)C(=O)N[C@@H](Cc1c[nH]c2ccccc12)C(=O)N[C@@H](C)c1ccccc1 + Cc1sc2c(c1C)C(c1ccc(Cl)cc1)=N[C@@H](CC(=O)OC(C)(C)C)c1nnc(C)n1-2 [NCGC00250412-19],-48.2
12,CCCCOCCOc1nc(-c2ccc(C(=O)O)c(F)c2)sc1C + Cc1sc2c(c1C)C(c1ccc(Cl)cc1)=N[C@@H](CC(=O)OC(C)(C)C)c1nnc(C)n1-2 [NCGC00250412-19],-217
13,Cc1ccc(C(=O)Nc2ccc(CN3CCN(C)CC3)c(C(F)(F)F)c2)cc1C#Cc1cnc2cccnn12 + Cc1sc2c(c1C)C(c1ccc(Cl)cc1)=N[C@@H](CC(=O)OC(C)(C)C)c1nnc(C)n1-2 [NCGC00250412-19],-162
14,O=C(Nc1cccc2c(=O)cc(-c3nnn[nH]3)oc12)c1ccc(OCCCCc2ccccc2)cc1 + Cc1sc2c(c1C)C(c1ccc(Cl)cc1)=N[C@@H](CC(=O)OC(C)(C)C)c1nnc(C)n1-2 [NCGC00250412-19],-286
15,CC[C@]1(O)C[C@@H]2CN(CCc3c([nH]c4ccccc34)[C@@](C(=O)OC)(c3cc4c(cc3OC)N(C)[C@H]3[C@@](O)(C(N)=O)[C@H](O)[C@]5(CC)C=CCN6CC[C@]43[C@@H]65)C2)C1 + Cc1sc2c(c1C)C(c1ccc(Cl)cc1)=N[C@@H](CC(=O)OC(C)(C)C)c1nnc(C)n1-2 [NCGC00250412-19],-90
16,COc1ccc(Cc2nccc3cc(OC)c(OC)cc23)cc1OC + Cc1sc2c(c1C)C(c1ccc(Cl)cc1)=N[C@@H](CC(=O)OC(C)(C)C)c1nnc(C)n1-2 [NCGC00250412-19],8.39
17,c1ccc(C2CN3CCSC3=N2)cc1 (centres undefined) + Cc1sc2c(c1C)C(c1ccc(Cl)cc1)=N[C@@H](CC(=O)OC(C)(C)C)c1nnc(C)n1-2 [NCGC00250412-19],-139
18,CC(C)(C)c1[nH]cnc1/C=c1\[nH]c(=O)/c(=C/c2ccccc2)[nH]c1=O + Cc1sc2c(c1C)C(c1ccc(Cl)cc1)=N[C@@H](CC(=O)OC(C)(C)C)c1nnc(C)n1-2 [NCGC00250412-19],-172
19,CCCCCCCCCCCCCCCCCCOP(=O)([O-])OC1CC[N+](C)(C)CC1 + Cc1sc2c(c1C)C(c1ccc(Cl)cc1)=N[C@@H](CC(=O)OC(C)(C)C)c1nnc(C)n1-2 [NCGC00250412-19],129
20,O=C(Nc1ccc(OC(F)(F)F)cc1)c1sccc1NCc1ccnc2ccccc12 + Cc1sc2c(c1C)C(c1ccc(Cl)cc1)=N[C@@H](CC(=O)OC(C)(C)C)c1nnc(C)n1-2 [NCGC00250412-19],-134

row,Structure (SMILES),excess over highest single agent
1,Nc1ncn([C@@H]2O[C@H](CO)[C@@H](O)[C@H]2O)c(=O)n1 + Cc1sc2c(c1C)C(c1ccc(Cl)cc1)=N[C@@H](CC(=O)OC(C)(C)C)c1nnc(C)n1-2 [NCGC00250412-19],-276
2,CC(COc1ccccc1)N(CCCl)Cc1ccccc1 (centres undefined) + Cc1sc2c(c1C)C(c1ccc(Cl)cc1)=N[C@@H](CC(=O)OC(C)(C)C)c1nnc(C)n1-2 [NCGC00250412-19],-72.4
3,CC[C@@H](C)[C@H](NC(=O)[C@H](CC1CCCCC1)NC(=O)c1ccno1)C(=O)N1CCC2(CCc3ccccc32)CC1 + Cc1sc2c(c1C)C(c1ccc(Cl)cc1)=N[C@@H](CC(=O)OC(C)(C)C)c1nnc(C)n1-2 [NCGC00250412-19],-93.4
4,COc1ccc(C(=O)CC2(O)C(=O)Nc3c(Cl)ccc(Cl)c32)cc1 (centres undefined) + Cc1sc2c(c1C)C(c1ccc(Cl)cc1)=N[C@@H](CC(=O)OC(C)(C)C)c1nnc(C)n1-2 [NCGC00250412-19],-308
5,CCCN[C@H]1CCc2nc(N)sc2C1 + Cc1sc2c(c1C)C(c1ccc(Cl)cc1)=N[C@@H](CC(=O)OC(C)(C)C)c1nnc(C)n1-2 [NCGC00250412-19],58.3
6,CC(C)(C)Cn1c(N)nc2ccc(-c3[nH]c(C(C)(C)C)nc3-c3ccc(F)cc3)nc21 + Cc1sc2c(c1C)C(c1ccc(Cl)cc1)=N[C@@H](CC(=O)OC(C)(C)C)c1nnc(C)n1-2 [NCGC00250412-19],63.8
7,CCOC(=O)c1ccc(OC(=O)CCCCCNC(=N)N)cc1 + Cc1sc2c(c1C)C(c1ccc(Cl)cc1)=N[C@@H](CC(=O)OC(C)(C)C)c1nnc(C)n1-2 [NCGC00250412-19],-6.81
8,OCCCNc1cc(-c2ccnc(Nc3cccc(Cl)c3)n2)ccn1 + Cc1sc2c(c1C)C(c1ccc(Cl)cc1)=N[C@@H](CC(=O)OC(C)(C)C)c1nnc(C)n1-2 [NCGC00250412-19],-201
9,COc1cccc(-c2ccc(NC(=O)C3=C(C(=O)O)CCC3)c(F)c2)c1 + Cc1sc2c(c1C)C(c1ccc(Cl)cc1)=N[C@@H](CC(=O)OC(C)(C)C)c1nnc(C)n1-2 [NCGC00250412-19],-129
10,Clc1cccc(-c2nnnn2Cc2cccnc2)c1Cl + Cc1sc2c(c1C)C(c1ccc(Cl)cc1)=N[C@@H](CC(=O)OC(C)(C)C)c1nnc(C)n1-2 [NCGC00250412-19],-192
11,Cc1cc(=O)oc2cc(O)ccc12 + Cc1sc2c(c1C)C(c1ccc(Cl)cc1)=N[C@@H](CC(=O)OC(C)(C)C)c1nnc(C)n1-2 [NCGC00250412-19],-48.1
12,CC(C)N(CCNC(=O)CN1CCCC1=O)C(C)C + Cc1sc2c(c1C)C(c1ccc(Cl)cc1)=N[C@@H](CC(=O)OC(C)(C)C)c1nnc(C)n1-2 [NCGC00250412-19],21.2
13,O=C(CCCCCCNC(=O)c1cnc(N(c2ccccc2)c2ccccc2)nc1)NO + Cc1sc2c(c1C)C(c1ccc(Cl)cc1)=N[C@@H](CC(=O)OC(C)(C)C)c1nnc(C)n1-2 [NCGC00250412-19],-34.2
14,Nc1ccc(C(=O)c2cc3c(ccc4ccccc43)[nH]2)cc1 + Cc1sc2c(c1C)C(c1ccc(Cl)cc1)=N[C@@H](CC(=O)OC(C)(C)C)c1nnc(C)n1-2 [NCGC00250412-19],-275
15,COc1c(OCCCN2CCOCC2)ccc2c3n(c(=NC(=O)c4cnc(N)nc4)nc12)CCN3 + Cc1sc2c(c1C)C(c1ccc(Cl)cc1)=N[C@@H](CC(=O)OC(C)(C)C)c1nnc(C)n1-2 [NCGC00250412-19],-358
16,Clc1ccc(C(Cn2ccnc2)OCc2c(Cl)cccc2Cl)c(Cl)c1 (centres undefined) + Cc1sc2c(c1C)C(c1ccc(Cl)cc1)=N[C@@H](CC(=O)OC(C)(C)C)c1nnc(C)n1-2 [NCGC00250412-19],-42.3
17,CC(C)n1nc(-c2cc3cc(O)ccc3[nH]2)c2c(N)ncnc21 + Cc1sc2c(c1C)C(c1ccc(Cl)cc1)=N[C@@H](CC(=O)OC(C)(C)C)c1nnc(C)n1-2 [NCGC00250412-19],-326
18,O=c1cc(-c2ccc(O)cc2)oc2cc(O)cc(O)c12 + Cc1sc2c(c1C)C(c1ccc(Cl)cc1)=N[C@@H](CC(=O)OC(C)(C)C)c1nnc(C)n1-2 [NCGC00250412-19],28.9
19,C[C@H](NC(=O)c1sccc1OCc1ccc(Cl)cc1)c1ccccc1 + Cc1sc2c(c1C)C(c1ccc(Cl)cc1)=N[C@@H](CC(=O)OC(C)(C)C)c1nnc(C)n1-2 [NCGC00250412-19],-260

# Single values from above.
# excess over highest single agent with CCOC(=O)[C@H](CCc1ccccc1)N[C@H]1CCc2ccccc2N(CC(=O)O)C1=O + Cc1sc2c(c1C)C(c1ccc(Cl)cc1)=N[C@@H](CC(=O)OC(C)(C)C)c1nnc(C)n1-2 [NCGC00250412-19] reads -36.5
# excess over highest single agent with C[C@]12CC[C@H]3[C@@H](CC[C@@]45O[C@@H]4C(O)=C(C#N)C[C@]35C)[C@@H]1CC[C@@H]2O + Cc1sc2c(c1C)C(c1ccc(Cl)cc1)=N[C@@H](CC(=O)OC(C)(C)C)c1nnc(C)n1-2 [NCGC00250412-19] reads -25.4
# excess over highest single agent with CC[C@]1(O)C[C@@H]2CN(CCc3c([nH]c4ccccc34)[C@@](C(=O)OC)(c3cc4c(cc3OC)N(C)[C@H]3[C@@](O)(C(N)=O)[C@H](O)[C@]5(CC)C=CCN6CC[C@]43[C@@H]65)C2)C1 + Cc1sc2c(c1C)C(c1ccc(Cl)cc1)=N[C@@H](CC(=O)OC(C)(C)C)c1nnc(C)n1-2 [NCGC00250412-19] reads -90
